Test results: PubChem BioAssay AID1347423 (Functional Genomics Laboratory (NCATS/FGL), 2020)
About 210 (0.4%) of roughly 52,000 sequences were called active.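 Rule for the calls: active = gene whose silencing raises cell survival under the drug, median off-target-corrected z-score across its silencing RNAs 2 or more; inactive = the rest.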 The list shows a part of the results.

Test: Resistance to Poly (ADP-Ribose) Polymerase inhibitor: Gene Identification via Genome-wide siRNA Screen
Details: mouse BRCA2 R2336H ES cells, olaparib, CellTiter-Glo viability; hits give high values
Procedure, shortened: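 Genome-wide siRNA screen (3 siRNAs/gene, 20 nM) in mouse ES cells carrying hypomorphic BRCA2 R2336H; olaparib 500 nM added 48 h post-transfection, CellTiter-Glo viability 72 h later. Normalized to plate-median negative control; MAD z-scores, gene median, seed-adjusted.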
With GGCUAUGGGAAAUAUAAGATT against Pde1b the z-score was inactive: -0.0685.
For AGCCAAAGAAUGCAAAACATT against Snrpn, the z-score was inactive: -0.329.
For AGCUAAAAGAUCAUUGGAGTT against Ear10, the z-score was inactive: -0.759.
With GGAAUUCAUGGAUAAGAAGTT against Hnmt the z-score was inactive: -1.02.
For GCCAGUGUCCCUAAUAAGGTT against Ager, the z-score was inactive: -0.71.
With GGUGCACACAAUAAAUUAATT against Fcgr3 the z-score was inactive: -0.545.
With GGAGAAAUUCAAAAGGAAUTT against Ms4a11 the z-score was inactive: 0.692.
With GGAGGACAUAAAAUAUCUATT against Trim17 the z-score was inactive: 0.855.
With “GAACGGCUACAUCUGUUACTT against 9930021D14Rik” the z-score was inactive: 0.0544.
With GGACACAGAUGGUUUGUAUTT against Chc1 the z-score was inactive: -0.192.
With GGCGGUUCAAAUGUCCUCATT against Fut2 the z-score was inactive: -0.209.
For CCUCAACCGGCAGUUCUUGTT against Uble1b, the z-score was inactive: 0.309.
In the case of GGCUCGAAGGAAAUGAGUUTT against Dppa3, the z-score is reported as inactive: -1.19.
In the case of GGACAUGCAGCAAAUCCAUTT against Ninj1, the z-score is reported as inactive: 1.44.
For GGUGACAAACAAAAACAAATT against Zdhhc14, the z-score was inactive: 0.855.
With GGGUCUUGUGAGAAAGUAUTT against Fads1 the z-score was inactive: 0.418.
With GGUUUGAGAAUUUGACUUCTT against BC020025 the z-score was inactive: 0.265.
For “GGAACAGCAGCACUCAGACTT against 6030419C18Rik”, the z-score was inactive: -0.465.
In the case of GGGAGUAGAUUCCAUUCCATT against Rnpep, the z-score is reported as inactive: 0.61.
For CCUACUACACCACUUGGGUTT against Dpm2, the z-score was inactive: 0.352.
With GGAGAACGGCUACAACACATT against Fgf22 the z-score was inactive: 0.343.
For GGUAUUCUUAGCACACAUGTT against V1re5, the z-score was inactive: -0.509.
In the case of CGAGUGACAGCUAAGUAUGTT against AW539964, the z-score is reported as inactive: -0.383.
For “GCAACAACAACAUUGCCUATT against 4930488E11Rik”, the z-score was inactive: -0.966.
For GGAAUUUGAAGACACAGAATT against Arl2bp, the z-score was inactive: -0.673.
In the case of “CCAACUCAUUGGAUCUUGCTT against 0610031J06Rik”, the z-score is reported as inactive: 0.394.
For GGCAGUAGAACAGAUCAGATT against Zfp162, the z-score was inactive: -1.83.
With “GGCUCUGAUGAAUACAACATT against 2400002F02Rik” the z-score was inactive: -0.439.
In the case of “GCUAAGCACAAUGUGUACATT against 2310069P03Rik”, the z-score is reported as inactive: -2.07.
For GCUUAGAACCCUUUUACAATT against Anp32a, the z-score was inactive: 0.888.
For GGAAGAGAGACUCAGCUCUTT against Galp, the z-score was inactive: 0.852.
With “GGUCUGCUGUUCAAAAUCATT against 4933417C16Rik” the z-score was inactive: -0.0551.
In the case of CCAUUAAGCAGCAAUAUUUTT against Pcdhga11, the z-score is reported as inactive: -1.44.
In the case of GGUCUUCACACAACGAACUTT against Mxd4, the z-score is reported as inactive: -0.659.
For “GGAUGCUAAUUUAUGUGCUTT against 2810413I22Rik”, the z-score was inactive: 0.143.
For GGAAGAAGGGUUUCAACGGTT against Mef2d, the z-score was inactive: 2.26.
In the case of GCAACUGUUCUACGUCUGATT against Tmprss2, the z-score is reported as inactive: -1.33.
For GGGUCAAAGGUCAAGGCUCTT against Gpr20, the z-score was inactive: 0.17.
In the case of GCUUUGGACGAACGAAUGCTT against Rassf6, the z-score is reported as inactive: -0.296.
In the case of “GGAAACAGUCCAGAACGAGTT against 2900016D05Rik”, the z-score is reported as inactive: 0.445.
With GGUGGAUCUGAAUAAGUGCTT against Sdhb the z-score was inactive: -0.33.
With GGAGACCUUCUGUUUUCUGTT against Ptcd1 the z-score was inactive: -0.019.
For “GGCUGUGAGAUAGAUCUAATT against E130112L23Rik”, the z-score was inactive: -0.595.
In the case of GGCACGUUCUCGUAUAUCATT against Gpr172b, the z-score is reported as inactive: 0.0317.
In the case of UGCCACUGCCAAAAAAUAATT against Tex18, the z-score is reported as inactive: -1.76.
For GGGAUGUAGUAAGCAAAGUTT against Gpc4, the z-score was inactive: 0.712.
With “CGCAUUUUAGUUCAUCUGUTT against 5730467H21Rik” the z-score was inactive: 0.408.
For “CCAUAACCCUUAGGAAAAGTT against C030014K22Rik”, the z-score was inactive: 0.877.
With GGGACUGGAAUCAAUGAACTT against Rgn the z-score was inactive: 0.374.
With GGAGAAGAAGGUUCUUGCCTT against Hoxb13 the z-score was inactive: 0.183.
In the case of “GCUAAUCUUUCCUCUGCCCTT against 5230400G24Rik”, the z-score is reported as inactive: 0.388.
With GCGAUUGAAAUGAGAGCUCTT against Hgd the z-score was inactive: -1.43.
In the case of “GGGUAUUAAAACCUCACUUTT against 4931406H21Rik”, the z-score is reported as inactive: -2.24.
With “GCCUUGGAUAAACCAGACGTT against A930031D07Rik” the z-score was inactive: 0.368.
With GCGUGUGGAAGAAAAAGAATT against Nedd8 the z-score was inactive: -3.02.
For GGGUGAGUACUCUUUAAAUTT against Nudt4, the z-score was inactive: 0.47.
With “CCUAUAAUGGAGAUGAUACTT against 5830435K17Rik” the z-score was inactive: 0.0953.
With GGCUAACCUGAGCAAACAGTT against Plvap the z-score was inactive: 1.4.
In the case of GCACACACGUAGAAGCGGATT against Erdr1, the z-score is reported as inactive: -0.823.
In the case of “GAACUCUUCCAGUGGAAGUTT against 2410015N17Rik”, the z-score is reported as inactive: -0.11.
For “GGCACUCAGGAACUUCCUGTT against 1810022C23Rik”, the z-score was inactive: -1.04.
For “GGAAGCAACAACAUAAACUTT against 4933440M02Rik”, the z-score was inactive: -0.217.
In the case of GGAGCUGUCACACCAUGAATT against Twsg1, the z-score is reported as inactive: 1.38.
With GGAAUCGGUGUAUUCGUUUTT against Sectm1 the z-score was inactive: -0.973.
In the case of GGCAUGGAGAGGAACUUCUTT against Sn, the z-score is reported as inactive: 1.29.
With GAAUUUGCCAUUUUCAGUGTT against Cox7c the z-score was inactive: -0.476.
In the case of “GGUCAUAGGUACGUAUCCGTT against 6430529G09Rik”, the z-score is reported as inactive: -0.0313.
In the case of GGAAAAAAUAAUGGUGACATT against Msr2, the z-score is reported as inactive: -2.53.
With GCCUGUUCCGCCAUUCAUGTT against Fliih the z-score was inactive: -1.13.
In the case of GGACAAACUACUUUUGUACTT against Tmprss3, the z-score is reported as inactive: 1.11.
With “GGUAAAAAACUGUCCUUCATT against 2810426N06Rik” the z-score was inactive: -0.272.
With GGAAAAGUUGAGGUUAUCATT against Ggt1 the z-score was inactive: 0.582.
In the case of GGUGUUAAUCCAGUUCAAUTT against Gm1805, the z-score is reported as inactive: 1.99.
In the case of GGUCUAUAGGAAGAAAUGGTT against Csen, the z-score is reported as inactive: 0.432.
For GAACUCCCAACCCUGGCAATT against Klk5, the z-score was inactive: -0.754.
In the case of GGGUUGAUUAAAGUUUAACTT against Gsh2, the z-score is reported as inactive: 0.244.
In the case of GCUGUUUUACCUUAAUCCCTT against Tnfsf18, the z-score is reported as inactive: 1.41.
For GGUUCAGCCAGAAUUUUCGTT against Ebaf, the z-score was inactive: 0.668.
For GGACACAUAAUGUCUACCUTT against Unc93a, the z-score was inactive: 0.716.
For “CGCACAAGUGCUUGAGUUATT against C330001K17Rik”, the z-score was inactive: 0.615.
In the case of GGUUCUGGUGGUGAAUGUGTT against Kcnd1, the z-score is reported as inactive: -1.38.
With GCCACACACCUUCUAUAAUTT against Ptprs the z-score was inactive: -0.0532.
In the case of CCAUCAAAUCGAACUGUUUTT against Txndc1, the z-score is reported as inactive: 1.21.
For GGAGAUCAAAGAUUUGAUUTT against Pi4k2a, the z-score was inactive: -0.451.
With GGCUUCCUCAUCGAUAUAATT against Ccnh the z-score was inactive: -1.61.
With GGGUACCUGUCCAAGGUCATT against Mfn2 the z-score was inactive: 0.63.
In the case of GGUUCACUGUUACACUCUGTT against Pctk2, the z-score is reported as inactive: -0.589.
With GGACCAGAGUAACUUGAAUTT against Zfp128 the z-score was inactive: 0.00435.
In the case of GCAACAUGGAAUGACCGCUTT against Cul2, the z-score is reported as inactive: -0.838.
For “CCAUUAAUUGAUGAUACUCTT against 1700019D03Rik”, the z-score was inactive: -0.881.
For “GCCAUAUGGUGAAGUCCUATT against D11Ertd530e”, the z-score was inactive: -1.34.
In the case of CCUGAAUGACCUAGGGCCUTT against Adam8, the z-score is reported as inactive: 0.106.
With GGAAAGCUCACUAUUGUAUTT against BC011468 the z-score was inactive: -0.668.
In the case of GGAAGGCAUUUUUCAGGUATT against Popdc3, the z-score is reported as inactive: 0.93.
With “GGCAAGGAGGAUGACAAAATT against 2310020H19Rik” the z-score was inactive: 0.34.
In the case of GGGUUCCAGUUUGUUUCCUTT against Cnbp1, the z-score is reported as inactive: 0.634.
In the case of CCCUAAAAAUUUUACCAAGTT against Mpp6, the z-score is reported as inactive: 0.117.
For GCAUUAGCUGAUCAGCAUATT against Herc3, the z-score was inactive: 0.667.
In the case of GGUGCAAAGCCCUUUAAGUTT against Klf7, the z-score is reported as inactive: 0.343.
For GCCCAAAAAUACUGGAUAUTT against Atp6ap2, the z-score was inactive: -1.66.
For GCCUUCCUGAAUUUAAAGATT against Myo5b, the z-score was inactive: 0.85.
In the case of CGUUAUUUGAUUUCUUGGATT against Tdrd3, the z-score is reported as inactive: 0.176.
For GCCCGAGAAGUGAAUCUUCTT against Pop7, the z-score was inactive: 1.59.
With “CCACACGUGUUUCAAAAUGTT against D13Ertd275e” the z-score was inactive: 1.28.
